# Test results published in the supplement of paper PMC8728848.
# The list shows a part of the results.
# B1: Tp0751, 83732 (protein)
# chain: MSYYHHHHHHLESTSLYKKAGFQHGHVPPRRIPPHDTFGALPTAALPSNARDTAAHPSDTADNTSGSSTTTDPRSHGNAPPAPVGGAAQTHTQPPVQTAMRIALWNRATHGEQGALQHLLAGLWIQTEISPNSGDIHPLLFFDREHAEITFSRASVQEIFLVDSAHTHRKTVSFLTRNTAISSIRRRLEVTFESHEVIHVRAVEDVARLKIGSTSMWDGQYTRYHAGPASAPSP
# Tests used:
# Assay in all cases: glycan array binding signal (z-score within array); higher = stronger binding
# Conditions in all cases: glycan notation: IUPAC condensed, linker removed
# GlcNAc(b1-3)Gal(b1-4)Glc = target: GlcNAc(b1-3)Gal(b1-4)Glc
# Method in brief: (§1)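 From the Consortium for Functional Glycomics database, 3228 arrays were curated, keeping only those whose protein sequence was available. Binding is given as a within-array Z-score averaged across arrays sharing a protein sequence and across linkers. Negative Z-scores can be read as non-binding.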
# [1] = target: GlcNAc(b1-3)Gal(b1-4)GlcNAc
# Method in brief: as §1
# [2] = target: GlcNAc(b1-3)Gal(b1-4)GlcNAc(b1-2)Man(a1-3)[GlcNAc(b1-3)Gal(b1-4)GlcNAc(b1-2)Man(a1-6)]Man(b1-4)GlcNAc(b1-4)GlcNAc
# Method in brief: as §1
# [3] = target: GlcNAc(b1-3)Gal(b1-4)GlcNAc(b1-2)Man(a1-3)[GlcNAc(b1-3)Gal(b1-4)GlcNAc(b1-2)Man(a1-6)]Man(b1-4)GlcNAc(b1-4)[Fuc(a1-6)]GlcNAc
# Method in brief: as §1
# [4] = target: GlcNAc(b1-3)Gal(b1-4)GlcNAc(b1-2)[GlcNAc(b1-3)Gal(b1-4)GlcNAc(b1-6)]Man(a1-6)[GlcNAc(b1-3)Gal(b1-4)GlcNAc(b1-2)Man(a1-3)]Man(b1-4)GlcNAc(b1-4)GlcNAc
# Method in brief: as §1
# [5] = target: GlcNAc(b1-3)Gal(b1-4)GlcNAc(b1-3)Gal(b1-4)GlcNAc
# Method in brief: as §1
# [6] = target: GlcNAc(b1-3)Gal(b1-4)GlcNAc(b1-3)Gal(b1-4)GlcNAc(b1-2)Man(a1-3)[GlcNAc(b1-3)Gal(b1-4)GlcNAc(b1-3)Gal(b1-4)GlcNAc(b1-2)Man(a1-6)]Man(b1-4)GlcNAc(b1-4)GlcNAc
# Method in brief: as §1
# [7] = target: GlcNAc(b1-3)Gal(b1-4)GlcNAc(b1-3)Gal(b1-4)GlcNAc(b1-2)Man(a1-3)[GlcNAc(b1-3)Gal(b1-4)GlcNAc(b1-3)Gal(b1-4)GlcNAc(b1-2)Man(a1-6)]Man(b1-4)GlcNAc(b1-4)[Fuc(a1-6)]GlcNAc
# Method in brief: as §1
# [8] = target: GlcNAc(b1-3)Gal(b1-4)GlcNAc(b1-3)Gal(b1-4)GlcNAc(b1-2)[GlcNAc(b1-3)Gal(b1-4)GlcNAc(b1-3)Gal(b1-4)GlcNAc(b1-6)]Man(a1-6)[GlcNAc(b1-3)Gal(b1-4)GlcNAc(b1-3)Gal(b1-4)GlcNAc(b1-2)Man(a1-3)]Man(b1-4)GlcNAc(b1-4)[Fuc(a1-6)]GlcNAc
# Method in brief: as §1
# [9] = target: GlcNAc(b1-3)Gal(b1-4)GlcNAc(b1-3)Gal(b1-4)GlcNAc(b1-3)Gal(b1-4)GlcNAc(b1-2)Man(a1-3)[GlcNAc(b1-3)Gal(b1-4)GlcNAc(b1-3)Gal(b1-4)GlcNAc(b1-3)Gal(b1-4)GlcNAc(b1-2)Man(a1-6)]Man(b1-4)GlcNAc(b1-4)GlcNAc
# Method in brief: as §1
# [10] = target: GlcNAc(b1-3)Gal(b1-4)GlcNAc(b1-3)Gal(b1-4)GlcNAc(b1-3)Gal(b1-4)GlcNAc(b1-2)Man(a1-3)[GlcNAc(b1-3)Gal(b1-4)GlcNAc(b1-3)Gal(b1-4)GlcNAc(b1-3)Gal(b1-4)GlcNAc(b1-2)Man(a1-6)]Man(b1-4)GlcNAc(b1-4)[Fuc(a1-6)]GlcNAc
# Method in brief: as §1
# [11] = target: GlcNAc(b1-3)Gal(b1-4)GlcNAc(b1-3)Gal(b1-4)GlcNAc(b1-3)Gal(b1-4)GlcNAc(b1-2)[GlcNAc(b1-3)Gal(b1-4)GlcNAc(b1-3)Gal(b1-4)GlcNAc(b1-3)Gal(b1-4)GlcNAc(b1-6)]Man(a1-6)[GlcNAc(b1-3)Gal(b1-4)GlcNAc(b1-3)Gal(b1-4)GlcNAc(b1-3)Gal(b1-4)GlcNAc(b1-2)Man(a1-3)]Man(b1-4)GlcNAc(b1-4)[Fuc(a1-6)]GlcNAc
# Method in brief: as §1
# [12] = target: GlcNAc(b1-3)Gal(b1-4)GlcNAc(b1-3)Gal(b1-4)GlcNAc(b1-3)Gal(b1-4)GlcNAc(b1-3)Gal(b1-4)GlcNAc(b1-2)Man(a1-3)[GlcNAc(b1-3)Gal(b1-4)GlcNAc(b1-3)Gal(b1-4)GlcNAc(b1-3)Gal(b1-4)GlcNAc(b1-3)Gal(b1-4)GlcNAc(b1-2)Man(a1-6)]Man(b1-4)GlcNAc(b1-4)GlcNAc
# Method in brief: as §1
# [13] = target: GlcNAc(b1-3)Gal(b1-4)GlcNAc(b1-3)Gal(b1-4)GlcNAc(b1-3)Gal(b1-4)GlcNAc(b1-3)Gal(b1-4)GlcNAc(b1-2)Man(a1-3)[GlcNAc(b1-3)Gal(b1-4)GlcNAc(b1-3)Gal(b1-4)GlcNAc(b1-3)Gal(b1-4)GlcNAc(b1-3)Gal(b1-4)GlcNAc(b1-2)Man(a1-6)]Man(b1-4)GlcNAc(b1-4)[Fuc(a1-6)]GlcNAc
# Method in brief: as §1
# [14] = target: GlcNAc(b1-3)Gal(b1-4)GlcNAc(b1-3)Gal(b1-4)GlcNAc(b1-3)Gal(b1-4)GlcNAc(b1-3)Gal(b1-4)GlcNAc(b1-2)[GlcNAc(b1-3)Gal(b1-4)GlcNAc(b1-3)Gal(b1-4)GlcNAc(b1-3)Gal(b1-4)GlcNAc(b1-3)Gal(b1-4)GlcNAc(b1-6)]Man(a1-6)[GlcNAc(b1-3)Gal(b1-4)GlcNAc(b1-3)Gal(b1-4)GlcNAc(b1-3)Gal(b1-4)GlcNAc(b1-3)Gal(b1-4)GlcNAc(b1-2)Man(a1-3)]Man(b1-4)GlcNAc(b1-4)[Fuc(a1-6)]GlcNAc
# Method in brief: as §1
# [15] = target: GlcNAc(b1-3)Gal(b1-4)GlcNAc(b1-3)Gal(b1-4)GlcNAc(b1-3)GalNAc
# Method in brief: as §1
# [16] = target: GlcNAc(b1-3)Gal(b1-4)GlcNAc(b1-3)GalNAc
# Method in brief: as §1
# [17] = target: GlcNAc(b1-3)Gal(b1-4)GlcNAc(b1-3)[GlcNAc(b1-3)Gal(b1-4)GlcNAc(b1-3)]GalNAc
# Method in brief: as §1
# [18] = target: GlcNAc(b1-3)Gal(b1-4)GlcNAc(b1-6)[Gal(b1-3)]GalNAc
# Method in brief: as §1
# [19] = target: GlcNAc(b1-3)Gal(b1-4)GlcNAc(b1-6)[GlcNAc(b1-3)Gal(b1-3)]GalNAc
# Method in brief: as §1
# [20] = target: GlcNAc(b1-3)Gal(b1-4)GlcNAc(b1-6)[GlcNAc(b1-3)]Gal(b1-4)GlcNAc
# Method in brief: as §1
# GlcNAc(b1-3)GalNAc = target: GlcNAc(b1-3)GalNAc
# Method in brief: as §1
# GlcNAc(b1-3)Man = target: GlcNAc(b1-3)Man
# Method in brief: as §1
# [21] = target: GlcNAc(b1-3)[GlcNAc(b1-4)][GlcNAc(b1-6)]GlcNAc
# Method in brief: as §1
# [22] = target: GlcNAc(b1-3)[GlcNAc(b1-6)]Gal(b1-4)GlcNAc
# Method in brief: as §1
# [23] = target: GlcNAc(b1-3)[GlcNAc(b1-6)]GalNAc
# Method in brief: as §1
# [24] = target: GlcNAc(b1-4)Gal(b1-4)GlcNAc
# Method in brief: as §1
# GlcNAc(b1-4)GlcNAc = target: GlcNAc(b1-4)GlcNAc
# Method in brief: as §1
# [25] = target: GlcNAc(b1-4)GlcNAc(b1-4)GlcNAc
# Method in brief: as §1
# [26] = target: GlcNAc(b1-4)GlcNAc(b1-4)GlcNAc(b1-4)GlcNAc(b1-4)GlcNAc
# Method in brief: as §1
# [27] = target: GlcNAc(b1-4)GlcNAc(b1-4)GlcNAc(b1-4)GlcNAc(b1-4)GlcNAc(b1-4)GlcNAc
# Method in brief: as §1
# [28] = target: GlcNAc(b1-4)[GlcNAc(b1-6)]GalNAc
# Method in brief: as §1
# [29] = target: GlcNAc(b1-6)Gal(b1-4)GlcNAc
# Method in brief: as §1
# GlcNAc(b1-6)GalNAc = target: GlcNAc(b1-6)GalNAc
# Method in brief: as §1
# [30] = target: GlcNAc6S(b1-3)Gal(b1-4)GlcNAc
# Method in brief: as §1
# Kdn(a2-3)Gal(b1-3)GalNAc = target: Kdn(a2-3)Gal(b1-3)GalNAc
# Method in brief: as §1
# Kdn(a2-3)Gal(b1-3)GlcNAc = target: Kdn(a2-3)Gal(b1-3)GlcNAc
# Method in brief: as §1
# Kdn(a2-3)Gal(b1-4)Glc = target: Kdn(a2-3)Gal(b1-4)Glc
# Method in brief: as §1
# Kdn(a2-3)Gal(b1-4)GlcNAc = target: Kdn(a2-3)Gal(b1-4)GlcNAc
# Method in brief: as §1
# [31] = target: Kdn(a2-3)Gal(b1-4)[Fuc(a1-3)]GlcNAc
# Method in brief: as §1
# Kdn(a2-6)Gal(b1-4)GlcNAc = target: Kdn(a2-6)Gal(b1-4)GlcNAc
# Method in brief: as §1
# [32] = target: Man(a1-2)Man(a1-2)Man(a1-3)Man
# Method in brief: as §1
# [33] = target: Man(a1-2)Man(a1-2)Man(a1-6)[Man(a1-3)]Man
# Method in brief: as §1
# Man(a1-2)Man(a1-3)Man = target: Man(a1-2)Man(a1-3)Man
# Method in brief: as §1
# [34] = target: Man(a1-2)Man(a1-3)[Man(a1-2)Man(a1-6)]Man
# Method in brief: as §1
binder,measurement,setting,value
B1,glycan array binding signal (z-score),GlcNAc(b1-3)Gal(b1-4)Glc,-0.663
same,glycan array binding signal (z-score),[1],-0.39
same,glycan array binding signal (z-score),[2],-0.228
same,glycan array binding signal (z-score),[3],-0.382
same,glycan array binding signal (z-score),[4],0.604
same,glycan array binding signal (z-score),[5],0.201
same,glycan array binding signal (z-score),[6],0.73
same,glycan array binding signal (z-score),[7],-0.349
same,glycan array binding signal (z-score),[8],-0.371
same,glycan array binding signal (z-score),[9],0.049
same,glycan array binding signal (z-score),[10],0.241
same,glycan array binding signal (z-score),[11],-0.165
same,glycan array binding signal (z-score),[12],0.414
same,glycan array binding signal (z-score),[13],-0.326
same,glycan array binding signal (z-score),[14],-0.088
same,glycan array binding signal (z-score),[15],-0.412
same,glycan array binding signal (z-score),[16],-0.301
same,glycan array binding signal (z-score),[17],-0.214
same,glycan array binding signal (z-score),[18],-0.81
same,glycan array binding signal (z-score),[19],-0.836
same,glycan array binding signal (z-score),[20],-0.244
same,glycan array binding signal (z-score),GlcNAc(b1-3)GalNAc,-0.155
same,glycan array binding signal (z-score),GlcNAc(b1-3)Man,-0.538
same,glycan array binding signal (z-score),[21],-0.255
same,glycan array binding signal (z-score),[22],-0.107
same,glycan array binding signal (z-score),[23],-0.312
same,glycan array binding signal (z-score),[24],-0.444
same,glycan array binding signal (z-score),GlcNAc(b1-4)GlcNAc,-0.622
same,glycan array binding signal (z-score),[25],-0.804
same,glycan array binding signal (z-score),[26],0.344
same,glycan array binding signal (z-score),[27],-0.38
same,glycan array binding signal (z-score),[28],-0.573
same,glycan array binding signal (z-score),[29],0.465
same,glycan array binding signal (z-score),GlcNAc(b1-6)GalNAc,-0.08
same,glycan array binding signal (z-score),[30],-0.304
same,glycan array binding signal (z-score),Kdn(a2-3)Gal(b1-3)GalNAc,0.307
same,glycan array binding signal (z-score),Kdn(a2-3)Gal(b1-3)GlcNAc,-0.516
same,glycan array binding signal (z-score),Kdn(a2-3)Gal(b1-4)Glc,-0.135
same,glycan array binding signal (z-score),Kdn(a2-3)Gal(b1-4)GlcNAc,0.055
same,glycan array binding signal (z-score),[31],-0.3
same,glycan array binding signal (z-score),Kdn(a2-6)Gal(b1-4)GlcNAc,0.23
same,glycan array binding signal (z-score),[32],-0.278
same,glycan array binding signal (z-score),[33],-0.397
same,glycan array binding signal (z-score),Man(a1-2)Man(a1-3)Man,-0.335
same,glycan array binding signal (z-score),[34],-0.257
